Measured values as given in the supplement of paper PMC10382679.
Single values of this set are uncertain.

B1: Rpb7; numbered along this chain (parent)
chain: MFFIKDLSLNITLHPSFFGPRMKQYLKTKLLEEVEGSCTGKFGYILCVLDYDNIDIQRGRILPTDGSAEFNVKYRAVVFKPFKGEVVDGTVVSCSQHGFEVQVGPMKVFVTKHLMPQDLTFNAGSNPPSYQSSEDVITIKSRIRVKIEGCISQVSSIHAIGSIKEDYLGAI

Key:
[1] = variants of: B1; assay: log2 fold change of mutant abundance, UV-irradiated vs unirradiated; higher = more UV resistant (enriched after UV); conditions: with Saccharomyces cerevisiae rad7Δ rad26Δ; UV dose (J/m2): 10; genetic background: rad7Δ rad26Δ rpb7Δ + plasmid RPB7 library; outgrowth: 10 cell divisions
[2] = variants of: B1; assay: NOISeq theta enrichment statistic, UV-irradiated vs unirradiated (dimensionless); higher = more UV resistant (enriched after UV); conditions: with Saccharomyces cerevisiae rad7Δ rad26Δ; UV dose (J/m2): 10; genetic background: rad7Δ rad26Δ rpb7Δ + plasmid RPB7 library; outgrowth: 10 cell divisions

Variant	log2 fold change of mutant abundance [1]	NOISeq theta enrichment statistic [2]
Q96E	0.0229	0.115
Q96G	0.0596	0.077
Q96H	0.0616	0.326
Q96I	0.134	0.123
Q96K	0.00727	0.0644
Q96L	-0.03	-0.0953
Q96M	0.00307	0.00513
Q96N	0.0729	0.151
Q96P	-0.00305	-0.0179
Q96R	0.0135	0.101
Q96S	0.0449	0.104
Q96T	0.0675	0.289
Q96V	0.0635	0.0677
Q96W	0.0286	0.0332
Q96Y	0.107	0.109
H97A	0.125	0.203
H97C	0.0168	0.0177
H97D	-0.00906	-0.0582
H97E	0.083	0.154
H97F	-0.153	-0.162
H97G	-0.0319	-0.0365
H97I	0.0985	0.168
H97K	-0.03	-0.154
H97L	0.0219	0.0765

Variant	log2 fold change of mutant abundance [1]	NOISeq theta enrichment statistic [2]
H97M	-0.149	-0.114
H97P	0.0277	0.112
H97Q	-0.036	-0.213
H97R	-0.0658	-0.285
H97S	-0.0398	-0.115
H97T	-0.000674	-0.00391
H97V	-0.116	-0.125
H97Y	-0.304	-1.04
G98A	-0.068	-0.0944
G98C	0.24	0.245
G98D	0.0197	0.0217
G98E	-0.0228	-0.131
G98K	0.195	0.195
G98L	0.285	0.199
G98M	0.198	0.168
G98Q	0.092	0.0819
G98R	0.00677	0.056
G98S	0.0415	0.048
G98T	0.081	0.0514
G98V	0.00328	0.00825
G98W	0.0229	0.0798
F99A	-0.173	-0.167
F99C	-0.0108	-0.0513
F99D	0.108	0.107

Variant	log2 fold change of mutant abundance [1]	NOISeq theta enrichment statistic [2]
F99E	0.234	0.168
F99G	-0.0979	-0.0824
F99H	-0.108	-0.0889
F99I	-0.0371	-0.335
F99L	0.0114	0.109
F99M	-0.0712	-0.0729
F99N	-0.311	-0.282
F99P	0.0648	0.0431
F99R	0.0339	0.0331
F99S	0.0391	0.132
F99T	-0.0146	-0.0159
F99V	0.0211	0.115
F99W	0.492	0.439
F99Y	-0.131	-0.517
E100A	0.0396	0.0952
E100C	0.777	0.512
E100D	-0.0471	-0.313
E100G	-0.255	-1.13
E100H	0.21	0.163
E100I	-0.207	-0.243
E100K	-0.0329	-0.168
E100L	-0.311	-0.266
E100M	0.441	0.27
E100N	-0.232	-0.236

Variant	log2 fold change of mutant abundance [1]	NOISeq theta enrichment statistic [2]
E100Q	0.0221	0.0514
E100R	-0.00739	-0.0131
E100S	-0.269	-0.241
E100T	0.0207	0.0227
E100V	-0.279	-1.48
E100W	0.507	0.291
E100Y	-0.0605	-0.0627
V101A	0.0925	0.289
V101C	0.064	0.0657
V101D	0.0616	0.0634
V101E	0.119	0.709
V101F	-0.00291	-0.00246
V101G	-0.0131	-0.0878
V101I	-0.0167	-0.0195
V101K	0.0899	0.0834
V101L	0.029	0.131
V101M	-0.0453	-0.24
V101N	0.306	0.202
V101Q	0.488	0.362
V101R	0.0538	0.123
V101S	-1.89e-05	-2.5e-05
V101T	0.11	0.115
V101W	-0.00921	-0.019
V101Y	-0.353	-0.167

Variant	log2 fold change of mutant abundance [1]	NOISeq theta enrichment statistic [2]
Q102A	0.176	0.207
Q102D	0.241	0.22
Q102E	-0.0177	-0.059
Q102G	-0.0211	-0.0181
Q102H	0.133	0.886
Q102I	-0.0032	-0.00316
Q102K	-0.00216	-0.0191
Q102L	0.0405	0.25
Q102M	0.641	0.463
Q102N	0.121	0.216
Q102P	0.106	0.235
Q102R	-0.0742	-0.405
Q102S	-0.19	-0.118
Q102T	0.0287	0.0475
Q102V	0.0398	0.0318
Q102Y	0.566	0.418
V103A	-0.085	-0.205
V103C	0.426	0.328
V103D	0.0718	0.0948
V103E	0.0663	0.299
V103F	0.193	0.166
V103G	0.0608	0.241
V103H	0.0184	0.0152
V103I	0.0576	0.263

Variant	log2 fold change of mutant abundance [1]	NOISeq theta enrichment statistic [2]
V103K	0.287	0.305
V103L	0.0316	0.13
V103M	0.298	0.297
V103N	0.025	0.0188
V103Q	-0.176	-0.128
V103R	0.00335	0.00472
V103S	0.0448	0.051
V103T	-0.079	-0.074
V103W	0.261	0.128
V103Y	0.368	0.322
G104A	0.15	0.253
G104C	0.000773	0.00192
G104D	0.00947	0.0428
G104E	-0.0305	-0.0429
G104H	-0.342	-0.22
G104I	0.207	0.168
G104K	-0.162	-0.0878
G104M	-0.0502	-0.0358
G104N	0.214	0.198
G104R	0.0375	0.0829
G104S	0.0239	0.0905
G104T	0.0588	0.0434
G104V	0.0502	0.21
G104W	0.0252	0.0195

Variant	log2 fold change of mutant abundance [1]	NOISeq theta enrichment statistic [2]
G104Y	0.0981	0.0717
P105A	-0.0793	-0.146
P105E	-0.111	-0.0846
P105G	0.58	0.403
P105H	0.0871	0.157
P105I	0.616	0.396
P105K	0.274	0.291
P105L	0.537	1.01
P105N	-0.406	-0.304
P105Q	0.0171	0.1
P105R	0.142	0.275
P105S	-0.00607	-0.0159
P105T	-0.00773	-0.0329
P105V	0.589	0.347
P105Y	-0.414	-0.259
M106A	-0.323	-0.139
M106C	0.0141	0.00942
M106E	0.0555	0.0421
M106F	-0.102	-0.0682
M106G	-0.222	-0.182
M106H	0.252	0.181
M106I	0.0927	0.454
M106K	-0.0111	-0.0321
M106L	0.213	0.947

Variant	log2 fold change of mutant abundance [1]	NOISeq theta enrichment statistic [2]
M106N	0.0348	0.0497
M106P	0.0921	0.0536
M106Q	0.0927	0.0879
M106R	0.0649	0.274
M106S	0.0952	0.148
M106T	0.172	0.42
M106V	0.0758	0.329
M106W	0.0482	0.042
K107A	0.226	0.192
K107D	0.143	0.139
K107E	0.0857	0.327
K107G	0.099	0.12
K107H	-0.0532	-0.032
K107I	-0.0278	-0.127
K107L	0.15	0.163
K107M	-0.08	-0.0654
K107N	0.0991	0.53
K107P	0.124	0.0741
K107Q	-0.0427	-0.147
K107R	-0.0285	-0.121
K107S	0.205	0.186
K107T	0.0609	0.219
K107V	0.269	0.277
K107Y	0.331	0.277

Variant	log2 fold change of mutant abundance [1]	NOISeq theta enrichment statistic [2]
V108A	0.0925	0.199
V108C	0.371	0.248
V108D	0.231	0.25
V108E	0.144	0.356
V108F	-0.157	-0.146
V108G	0.0761	0.477
V108I	-0.00687	-0.0219
V108K	1.1	0.523
V108L	0.0394	0.0931
V108M	-0.351	-0.274
V108Q	0.202	0.187
V108R	-0.0533	-0.0682
V108S	0.167	0.179
V108T	0.412	0.298
V108Y	0.215	0.112
F109A	0.182	0.125
F109C	0.0831	0.251
F109D	0.064	0.0626
F109G	-0.196	-0.192
F109H	-0.546	-0.39
F109I	-0.123	-0.683
F109L	-0.258	-1.65
F109M	-0.0673	-0.0628
F109N	-0.102	-0.109

Variant	log2 fold change of mutant abundance [1]	NOISeq theta enrichment statistic [2]
F109R	-0.503	-0.404
F109S	-0.125	-0.198
F109T	-0.11	-0.0747
F109V	0.0334	0.256
F109W	-0.356	-0.282
F109Y	-0.0955	-0.439
V110A	-0.0185	-0.0431
V110C	0.0843	0.0919
V110D	-0.0295	-0.021
V110E	0.0411	0.0949
V110F	-0.0152	-0.0124
V110G	0.00373	0.021
V110I	0.00671	0.00511
V110K	-0.636	-0.33
V110L	0.0382	0.108
